# The other results are listed elsewhere or left out.
# B1: DC-Sign-R (Homo sapiens), Q9H2X3 (protein)
# chain: MSDSKEPRVQQLGLLEEDPTTSGIRLFPRDFQFQQIHGHKSSTGCLGHGALVLQLLSFMLLAGVLVAILVQVSKVPSSLSQEQSEQDAIYQNLTQLKAAVGELSEKSKLQEIYQELTQLKAAVGELPEKSKLQEIYQELTRLKAAVGELPEKSKLQEIYQELTRLKAAVGELPEKSKLQEIYQELTRLKAAVGELPEKSKLQEIYQELTELKAAVGELPEKSKLQEIYQELTQLKAAVGELPDQSKQQQIYQELTDLKTAFERLCRHCPKDWTFFQGNCYFMSNSQRNWHDSVTACQEVRAQLVVIKTAEEQNFLQLQTSRSNRFSWMGLSDLNQEGTWQWVDGSPLSPSFQRYWNSGEPNNSGNEDCAEFSGSGWNDNRCDVDNYWICKKPAACFRDE
# Assays:
# Experiment in all cases: glycan array binding signal (z-score within array); higher = stronger binding
# Conditions in all cases: glycan notation: IUPAC condensed, linker removed
# [1] = molecular target: Fuc(a1-2)[Gal(a1-3)]Gal(b1-4)GlcNAc(b1-2)Man(a1-3)[Fuc(a1-2)[Gal(a1-3)]Gal(b1-4)GlcNAc(b1-2)Man(a1-6)]Man(b1-4)GlcNAc(b1-4)GlcNAc
# How it was run: (§1)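 The binding signal is a Z-score computed within each array. Data were drawn from 3228 arrays in the Consortium for Functional Glycomics database, restricted to those with a known protein sequence. Scores were averaged over arrays of the same protein sequence at different concentrations or buffers, and over linkers, and negative values can be taken as non-binding.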
# [2] = molecular target: Fuc(a1-2)[Gal(a1-3)]Gal(b1-4)GlcNAc(b1-2)Man(a1-3)[Fuc(a1-2)[Gal(a1-3)]Gal(b1-4)GlcNAc(b1-2)Man(a1-6)]Man(b1-4)GlcNAc(b1-4)[Fuc(a1-6)]GlcNAc
# How it was run: as §1
# [3] = molecular target: Fuc(a1-2)[Gal(a1-3)]Gal(b1-4)GlcNAc(b1-3)GalNAc
# How it was run: as §1
# [4] = molecular target: Fuc(a1-2)[Gal(a1-3)]Gal(b1-4)GlcNAc(b1-3)[Fuc(a1-2)[Gal(a1-3)]Gal(b1-4)GlcNAc(b1-6)]GalNAc
# How it was run: as §1
# [5] = molecular target: Fuc(a1-2)[Gal(a1-3)]Gal(b1-4)GlcNAc(b1-6)GalNAc
# How it was run: as §1
# [6] = molecular target: Fuc(a1-2)[Gal(a1-3)]Gal(b1-4)[Fuc(a1-3)]Glc
# How it was run: as §1
# [7] = molecular target: Fuc(a1-2)[Gal(a1-3)]Gal(b1-4)[Fuc(a1-3)]GlcNAc
# How it was run: as §1
# [8] = molecular target: Fuc(a1-2)[Gal(a1-3)]Gal(b1-4)[Fuc(a1-3)]GlcNAc(b1-3)GalNAc
# How it was run: as §1
# [9] = molecular target: Fuc(a1-2)[Gal(a1-4)]Gal(b1-4)GlcNAc
# How it was run: as §1
# [10] = molecular target: Fuc(a1-2)[GalNAc(a1-3)]Gal
# How it was run: as §1
# [11] = molecular target: Fuc(a1-2)[GalNAc(a1-3)]Gal(b1-3)GalNAc(a1-3)[Fuc(a1-2)]Gal(b1-4)GlcNAc
# How it was run: as §1
# [12] = molecular target: Fuc(a1-2)[GalNAc(a1-3)]Gal(b1-3)GalNAc(b1-3)Gal(a1-4)Gal(b1-4)Glc
# How it was run: as §1
# [13] = molecular target: Fuc(a1-2)[GalNAc(a1-3)]Gal(b1-3)GlcNAc
# How it was run: as §1
# [14] = molecular target: Fuc(a1-2)[GalNAc(a1-3)]Gal(b1-3)GlcNAc(b1-2)Man(a1-3)[Fuc(a1-2)[GalNAc(a1-3)]Gal(b1-3)GlcNAc(b1-2)Man(a1-6)]Man(b1-4)GlcNAc(b1-4)GlcNAc
# How it was run: as §1
# [15] = molecular target: Fuc(a1-2)[GalNAc(a1-3)]Gal(b1-3)GlcNAc(b1-2)Man(a1-3)[Fuc(a1-2)[GalNAc(a1-3)]Gal(b1-3)GlcNAc(b1-2)Man(a1-6)]Man(b1-4)GlcNAc(b1-4)[Fuc(a1-6)]GlcNAc
# How it was run: as §1
# [16] = molecular target: Fuc(a1-2)[GalNAc(a1-3)]Gal(b1-3)GlcNAc(b1-3)GalNAc
# How it was run: as §1
# [17] = molecular target: Fuc(a1-2)[GalNAc(a1-3)]Gal(b1-3)GlcNAc(b1-6)GalNAc
# How it was run: as §1
# [18] = molecular target: Fuc(a1-2)[GalNAc(a1-3)]Gal(b1-4)Glc
# How it was run: as §1
# [19] = molecular target: Fuc(a1-2)[GalNAc(a1-3)]Gal(b1-4)GlcNAc
# How it was run: as §1
# [20] = molecular target: Fuc(a1-2)[GalNAc(a1-3)]Gal(b1-4)GlcNAc(b1-2)Man
# How it was run: as §1
# [21] = molecular target: Fuc(a1-2)[GalNAc(a1-3)]Gal(b1-4)GlcNAc(b1-2)Man(a1-3)[Fuc(a1-2)[GalNAc(a1-3)]Gal(b1-4)GlcNAc(b1-2)Man(a1-6)]Man(b1-4)GlcNAc(b1-4)GlcNAc
# How it was run: as §1
# [22] = molecular target: Fuc(a1-2)[GalNAc(a1-3)]Gal(b1-4)GlcNAc(b1-2)Man(a1-3)[Fuc(a1-2)[GalNAc(a1-3)]Gal(b1-4)GlcNAc(b1-2)Man(a1-6)]Man(b1-4)GlcNAc(b1-4)[Fuc(a1-6)]GlcNAc
# How it was run: as §1
# [23] = molecular target: Fuc(a1-2)[GalNAc(a1-3)]Gal(b1-4)GlcNAc(b1-3)Gal(b1-4)GlcNAc
# How it was run: as §1
# [24] = molecular target: Fuc(a1-2)[GalNAc(a1-3)]Gal(b1-4)GlcNAc(b1-3)Gal(b1-4)GlcNAc(b1-3)Gal(b1-4)GlcNAc
# How it was run: as §1
# [25] = molecular target: Fuc(a1-2)[GalNAc(a1-3)]Gal(b1-4)GlcNAc(b1-3)GalNAc
# How it was run: as §1
# [26] = molecular target: Fuc(a1-2)[GalNAc(a1-3)]Gal(b1-4)GlcNAc(b1-3)[Fuc(a1-2)[GalNAc(a1-3)]Gal(b1-4)GlcNAc(b1-6)]GalNAc
# How it was run: as §1
# [27] = molecular target: Fuc(a1-2)[GalNAc(a1-3)]Gal(b1-4)GlcNAc(b1-6)GalNAc
# How it was run: as §1
# [28] = molecular target: Fuc(a1-2)[GalNAc(a1-3)]Gal(b1-4)[Fuc(a1-3)]GlcNAc
# How it was run: as §1
# [29] = molecular target: Fuc(a1-2)[GalNAc(a1-3)]Gal(b1-4)[Fuc(a1-3)]GlcNAc(b1-3)GalNAc
# How it was run: as §1
# [30] = molecular target: Fuc(a1-2)[GalNAc(a1-4)]Gal(b1-4)GlcNAc
# How it was run: as §1
binder,measurement,setting,value
B1,glycan array binding signal (z-score),[1],-0.786
same,glycan array binding signal (z-score),[2],-0.844
same,glycan array binding signal (z-score),[3],0.16
same,glycan array binding signal (z-score),[4],-0.4
same,glycan array binding signal (z-score),[5],-0.338
same,glycan array binding signal (z-score),[6],-0.545
same,glycan array binding signal (z-score),[7],0.112
same,glycan array binding signal (z-score),[8],-0.628
same,glycan array binding signal (z-score),[9],-0.105
same,glycan array binding signal (z-score),[10],0.758
same,glycan array binding signal (z-score),[11],-0.817
same,glycan array binding signal (z-score),[12],0.392
same,glycan array binding signal (z-score),[13],-0.339
same,glycan array binding signal (z-score),[14],-0.748
same,glycan array binding signal (z-score),[15],-0.011
same,glycan array binding signal (z-score),[16],0.384
same,glycan array binding signal (z-score),[17],-0.277
same,glycan array binding signal (z-score),[18],2.29
same,glycan array binding signal (z-score),[19],1.53
same,glycan array binding signal (z-score),[20],0.296
same,glycan array binding signal (z-score),[21],-0.72
same,glycan array binding signal (z-score),[22],-0.671
same,glycan array binding signal (z-score),[23],0.606
same,glycan array binding signal (z-score),[24],0.606
same,glycan array binding signal (z-score),[25],-0.257
same,glycan array binding signal (z-score),[26],-0.812
same,glycan array binding signal (z-score),[27],0.433
same,glycan array binding signal (z-score),[28],0.544
same,glycan array binding signal (z-score),[29],0.721
same,glycan array binding signal (z-score),[30],0.012

# Reformatted with bars between the fields: part of the list above.
binder | measurement | setting | value
B1 | glycan array binding signal (z-score) | [2] | -0.844
same | glycan array binding signal (z-score) | [3] | 0.16

# Source: the supplement of paper PMC8728848
